Values quoted from earlier work as cited in US20060135612A1, “Method of ameliorating or abrogating the effects of a neurodegenerative disorder, such as amyotrophic lateral sclerosis (ALS), by using a HDAC inhibiting agent” (U.S. Department of Veterans Affairs, priority 2004, published 2006).
At least one structure is not confirmed: it was looked up by name or label, or the drawing left a doubt.

Tested on: ALS mice
Conditions: References 10 and 11; cited from earlier work

Cc1ccc(-c2cc(C(F)(F)F)nn2-c2ccc(S(N)(=O)=O)cc2)cc1 [celecoxib]
survival extension: 25%
